Laboratory results taken from PubChem BioAssay AID1487 (National Center for Advancing Translational Sciences (NCATS), 2009).
This is one part of the list. These are further read-outs of the screen, such as a control signal, another cell line or another target. No call is given for them. Most of these compounds were active or inconclusive in the main read-out, so they are no random draw. Words in brackets tell the shape of the fitted curve; partial curves, single points and poor fits give uncertain potencies.

Test: qHTS Assay for Modulators of Lamin A Splicing
Conditions: HeLa LMNA splicing GFP/RFP minigene ratio, 48 h
How it was run: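 S3 HeLa stable clones carrying a lamin A-EGFP splicing minigene plus DsRed2 were seeded at 600 cells/well in Opti-MEM with 2% FBS, pin-dosed and incubated 48 h at 37°C. Acumen cytometry (488 nm) gave the GFP/RFP total-intensity ratio.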

[1] = measured here: GFP splicing reporter channel
[2] = measured here: RFP viability control channel

O=C(CCn1c(=O)[nH]c2ccsc2c1=O)N(CCc1ccccc1)Cc1ccccc1
AC50 [1]: 17.8 µM [rising, single point]

CCN(CC)C(=O)/C(C#N)=C/c1cc(O)c(O)c([N+](=O)[O-])c1
AC50 [1]: 6.31 µM [falling, partial curve, poor fit]
AC50 [2]: 0.0447 µM [falling, full curve, poor fit]

COCCN(CCOC)C(=S)Nc1ccccc1Cl
AC50 [2]: 0.501 µM [rising, full curve]

Fc1ccc(Nc2nc(N3CCOCC3)c3ccccc3n2)cc1
AC50 [1]: 31.6 µM [rising, partial curve]
AC50 [2]: 25.1 µM [rising, partial curve]

S=C(Nc1ccc(Br)cc1)NC1CCCCC1
AC50 [2]: 35.5 µM [rising, single point]

CC(C)c1ccc(NC(=O)c2snc3ccc(Cl)cc23)cc1
AC50 [2]: 10 µM [rising, partial curve]

CN(Cc1ccccc1)S(=O)(=O)c1ccc(NC(=S)NC(=O)C2CCCC2)cc1
AC50 [1]: 8.91 µM [falling, partial curve]
AC50 [2]: 10 µM [falling, partial curve]

CC(C)NC(=O)NC(=O)COC(=O)Cc1c(F)cccc1Cl
AC50 [1]: 0.0794 µM [falling, full curve, poor fit]
AC50 [2]: 0.0224 µM [falling, full curve, poor fit]

COc1cccc(Nc2ncc3ncc(=O)n(CCc4ccccc4)c3n2)c1
AC50 [2]: 14.1 µM [falling, partial curve]

Cc1ccc(C)c(-n2nnnc2Sc2nnnn2-c2ccccc2)c1
AC50 [1]: 28.2 µM [falling, single point]
AC50 [2]: 35.5 µM [falling, single point]

O=C(c1cccc(S(=O)(=O)Nc2ccccc2F)c1)N1CCN(c2ccccc2F)CC1
AC50 [1]: 7.94 µM [falling, full curve, poor fit]
AC50 [2]: 7.08 µM [falling, full curve, poor fit]

CCN(CC)c1ccc(NC(=O)C2=CCN(S(=O)(=O)c3ccc(F)cc3)CC2)c(C)c1
AC50 [2]: 14.1 µM [rising, single point]

Cc1nn(CCCC(=O)Nc2cc(Oc3ccccc3)cc([N+](=O)[O-])c2)c(C)c1[N+](=O)[O-]
AC50 [1]: 35.5 µM [rising, single point]

CC1CCCCC1NC(=O)/C(C#N)=C/c1ccccc1F (stereo unspecified)
AC50 [2]: 25.1 µM [rising, single point]

COc1cc(/C=C/C(=O)OC(C)C(=O)Nc2c(C)n(C)n(-c3ccccc3)c2=O)ccc1OCC#N (stereo unspecified)
AC50 [1]: 10 µM [falling, partial curve, poor fit]
AC50 [2]: 7.08 µM [falling, full curve]

C/C(N)=C(/C#N)C(=O)CSc1nnc(SCc2ccc(Cl)cc2)s1
AC50 [1]: 31.6 µM [rising, single point]
AC50 [2]: 31.6 µM [rising, single point]

COc1ccc2[nH]cc(CCNc3nc(-c4ccc(C(=O)N(C)C)cc4)nc4ccccc34)c2c1
AC50 [1]: 10 µM [falling, partial curve]
AC50 [2]: 11.2 µM [falling, partial curve]

CN(C)[C@H]1C(=O)C(C(=O)NCN2CCCC2)=C(O)[C@]2(O)C(=O)C3=C(O)c4c(O)cccc4[C@](C)(O)[C@H]3C[C@H]12
AC50 [1]: 0.0355 µM [rising, full curve, poor fit]

Cc1nc2ccccc2nc(C)c1=NOCc1ccc(Cl)cc1Cl
AC50 [1]: 35.5 µM [rising, single point]
AC50 [2]: 25.1 µM [rising, partial curve]

O=C(OCC1CC(c2ccccc2)=NO1)c1ccc(Br)cc1 (stereo unspecified)
AC50 [2]: 0.00891 µM [rising, full curve, poor fit]

C/C(CCC(=O)OC[C@H]1O[C@H](C#Cc2ccccc2)C=C[C@@H]1Oc1ccc(C)cc1)=N\OC[C@@H](O)[C@H]1O[C@@H]2OC(C)(C)O[C@@H]2[C@H]1O
AC50 [1]: 10 µM [rising, partial curve, poor fit]
AC50 [2]: 12.6 µM [rising, partial curve]

O=C(NCC(=O)N(Cc1ccc(F)cc1)C(C(=O)NC1CCCC1)c1ccco1)c1ccco1 (stereo unspecified)
AC50 [1]: 31.6 µM [rising, single point]

COc1cccc(C2c3c(oc4ccc(Cl)cc4c3=O)C(=O)N2c2cc(C)on2)c1OC (stereo unspecified)
AC50 [1]: 2 µM [rising, partial curve, poor fit]

CC(=O)N(C)c1ccc(NC(=O)COc2ccc(Br)cc2C)cc1
AC50 [1]: 10 µM [rising, partial curve]
AC50 [2]: 15.8 µM [rising, single point]

C=C(C)CNC(=S)N=Nc1c(O)[nH]c2ccc([N+](=O)[O-])cc12
AC50 [1]: 28.2 µM [rising, single point]

CC(NC(=O)CCCC1=NS(=O)(=O)c2ccccc2N1)c1ccccc1 (stereo unspecified)
AC50 [1]: 20 µM [rising, partial curve, poor fit]

c1ccc(-c2csc(N3CCN(c4ccccn4)CC3)n2)cc1
AC50 [1]: 15.8 µM [rising, partial curve, poor fit]
AC50 [2]: 35.5 µM [rising, single point]

CCN(CC)c1nc2c3c(nc4c(c3c1C#N)CC(=O)N4c1ccc(Cl)cc1)NC(C)=N2
AC50 [2]: 17.8 µM [rising, partial curve]

O=C(N/N=C\c1c(O)ccc2ccccc12)c1ccc(Cn2cccn2)o1
AC50 [1]: 8.91 µM [rising, partial curve]
AC50 [2]: 10 µM [rising, partial curve]

O=C(/C=C/c1c(F)cccc1Cl)Nc1nn[nH]n1
AC50 [1]: 0.00501 µM [rising, full curve]

COCCCNC(=S)N/N=C/c1ccccc1O
AC50 [1]: 0.158 µM [falling, full curve]

O=C(CCc1nc(-c2cccs2)no1)Nc1ccccc1[N+](=O)[O-]
AC50 [2]: 0.00447 µM [falling, full curve, poor fit]

CC(C)Oc1ccc2c(=O)cc(-c3ccccc3)oc2c1
AC50 [1]: 10 µM [falling, single point]

CCOC(=O)N1CCc2[nH]c3ccc(C)cc3c2C1
AC50 [2]: 0.316 µM [rising, full curve, poor fit]

Cc1ccc2nc(NC(=O)CSc3nccn3Cc3ccc(Cl)cc3)sc2c1
AC50 [2]: 0.0891 µM [falling, full curve]

O=C(N/N=C/c1sc(=O)n(-c2ccccc2)c1Cl)c1ccncc1
AC50 [1]: 12.6 µM [falling, partial curve]
AC50 [2]: 15.8 µM [falling, partial curve, poor fit]

CCc1cccc(C)c1NC(=O)c1cc(S(=O)(=O)N2CCOCC2)cn1C
AC50 [2]: 35.5 µM [rising, single point]

O=C(NCc1ccc(C(F)(F)F)cc1)C1CC(c2c(Cl)cccc2Cl)=NO1 (stereo unspecified)
AC50 [1]: 17.8 µM [rising, single point]

CCn1nnc(-c2ccccc2NS(=O)(=O)c2ccc(S(=O)(=O)N3CCCCCC3)cc2)n1
AC50 [1]: 0.0355 µM [rising, full curve, poor fit]
AC50 [2]: 31.6 µM [rising, single point]

COC(=O)c1ccccc1NC(=S)NC(C)=O
AC50 [2]: 0.0562 µM [falling, full curve, poor fit]

O=C(NC(=S)Nc1ccc(Oc2ccccc2)cc1)c1ccc(Cl)cc1
AC50 [2]: 17.8 µM [rising, single point]

Cc1cc(OCCn2cnc3ccccc3c2=O)cc(C(C)C)c1
AC50 [1]: 14.1 µM [rising, single point]
AC50 [2]: 22.4 µM [rising, single point]

CC(=C/c1ccc(C(C)C)cc1)/C=N/NC(=O)c1ccncc1
AC50 [2]: 10 µM [rising, partial curve]

O=c1[nH]c(SCc2c(Cl)cccc2Cl)nc2ccccc12
AC50 [2]: 2.82 µM [rising, single point]

COc1ccccc1NS(=O)(=O)c1cc(N2Cc3ccccc3C2=N)ccc1N1CCOCC1
AC50 [2]: 1.41 µM [rising, partial curve]

O=C1C(Cl)=C(Nc2cccc(O)c2)C(=O)N1Cc1ccccc1
AC50 [2]: 14.1 µM [rising, partial curve]

CC(=O)N1N=C(c2ccc(Br)cc2)CC1c1cn(C)c2ccccc12 (stereo unspecified)
AC50 [1]: 22.4 µM [rising, single point]
AC50 [2]: 22.4 µM [rising, single point]

O=c1[nH]c(CSc2nnc(Nc3ccccc3)s2)nc2ccccc12
AC50 [2]: 0.0501 µM [falling, partial curve, poor fit]

O=C(NCCCN1CCOCC1)c1ccc(Cl)cc1[N+](=O)[O-]
AC50 [2]: 5.62 µM [falling, partial curve, poor fit]

CCOc1ccc2c(c1)C(c1ccc(C)cc1)=NNC(c1ccc(C)cc1)=N2
AC50 [2]: 14.1 µM [rising, partial curve, poor fit]

COc1cc2c(cc1OC)C1=C(C#N)CCC(=NC(=O)c3ccco3)N1CC2
AC50 [1]: 7.94 µM [rising, partial curve, poor fit]
AC50 [2]: 0.00282 µM [rising, full curve, poor fit]

COc1ccc(OC)c(-c2cc(C(=O)Nc3c(C)nn(Cc4ccccc4)c3C)no2)c1
AC50 [1]: 11.2 µM [rising, partial curve]
AC50 [2]: 12.6 µM [rising, single point]

CN(C)c1ccc(-c2nc(N3CCNCC3)c3ccccc3n2)cc1
AC50 [1]: 20 µM [falling, single point]
AC50 [2]: 31.6 µM [rising, single point]

Cc1cc(Cl)ccc1OCC(=O)N1CCCCC1
AC50 [1]: 22.4 µM [falling, single point]
AC50 [2]: 22.4 µM [falling, single point]
